Reference: the supplement of paper PMC10849652
The other results are listed elsewhere or left out.

By UniProt entry, the sequences of proteins in these tests, tags left out. Where a name states a change or a piece, a line headed by the entry shows the natural chain unless it says otherwise.
UniProt Q9H6S3: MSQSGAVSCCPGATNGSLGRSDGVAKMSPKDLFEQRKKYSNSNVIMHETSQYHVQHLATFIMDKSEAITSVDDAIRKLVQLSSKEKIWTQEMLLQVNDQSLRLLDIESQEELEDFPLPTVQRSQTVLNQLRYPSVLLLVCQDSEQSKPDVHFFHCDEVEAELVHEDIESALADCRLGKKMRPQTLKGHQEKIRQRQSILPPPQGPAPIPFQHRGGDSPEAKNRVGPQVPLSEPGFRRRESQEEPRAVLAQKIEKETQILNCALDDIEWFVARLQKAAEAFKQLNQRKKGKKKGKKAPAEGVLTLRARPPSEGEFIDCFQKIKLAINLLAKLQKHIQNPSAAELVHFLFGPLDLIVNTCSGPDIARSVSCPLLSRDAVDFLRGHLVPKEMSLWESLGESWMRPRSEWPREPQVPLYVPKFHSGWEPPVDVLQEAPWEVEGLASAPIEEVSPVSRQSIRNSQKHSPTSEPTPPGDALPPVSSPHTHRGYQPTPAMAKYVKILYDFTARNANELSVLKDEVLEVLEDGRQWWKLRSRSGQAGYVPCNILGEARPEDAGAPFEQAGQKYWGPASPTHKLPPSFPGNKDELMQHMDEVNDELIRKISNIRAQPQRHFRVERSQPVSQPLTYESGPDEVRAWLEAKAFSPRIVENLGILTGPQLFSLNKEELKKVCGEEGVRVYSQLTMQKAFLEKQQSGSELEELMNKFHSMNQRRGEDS
UniProt A1L3X0: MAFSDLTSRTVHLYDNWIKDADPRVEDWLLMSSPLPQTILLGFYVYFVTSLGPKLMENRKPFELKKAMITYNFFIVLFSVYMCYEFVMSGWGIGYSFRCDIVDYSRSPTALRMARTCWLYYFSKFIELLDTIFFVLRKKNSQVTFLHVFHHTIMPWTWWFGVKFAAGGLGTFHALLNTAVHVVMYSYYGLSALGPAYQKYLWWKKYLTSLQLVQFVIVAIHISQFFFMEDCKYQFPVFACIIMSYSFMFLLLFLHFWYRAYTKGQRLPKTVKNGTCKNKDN
UniProt O95834: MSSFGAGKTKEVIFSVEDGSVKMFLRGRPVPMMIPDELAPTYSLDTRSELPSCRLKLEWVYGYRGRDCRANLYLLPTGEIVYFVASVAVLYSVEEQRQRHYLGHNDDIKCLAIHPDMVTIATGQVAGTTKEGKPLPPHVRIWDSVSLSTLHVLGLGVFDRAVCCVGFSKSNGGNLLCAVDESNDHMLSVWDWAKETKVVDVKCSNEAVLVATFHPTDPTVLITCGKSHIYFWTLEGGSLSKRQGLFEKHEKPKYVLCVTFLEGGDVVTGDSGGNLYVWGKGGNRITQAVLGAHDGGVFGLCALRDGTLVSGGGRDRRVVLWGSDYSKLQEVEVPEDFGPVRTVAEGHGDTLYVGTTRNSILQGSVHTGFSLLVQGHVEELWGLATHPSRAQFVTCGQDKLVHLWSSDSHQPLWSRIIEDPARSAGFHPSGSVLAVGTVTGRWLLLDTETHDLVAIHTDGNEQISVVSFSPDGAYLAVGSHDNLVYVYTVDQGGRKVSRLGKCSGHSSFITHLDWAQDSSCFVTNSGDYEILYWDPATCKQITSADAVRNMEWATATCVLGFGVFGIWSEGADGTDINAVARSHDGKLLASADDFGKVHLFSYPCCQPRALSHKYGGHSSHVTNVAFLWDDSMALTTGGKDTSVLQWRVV
UniProt Q14241: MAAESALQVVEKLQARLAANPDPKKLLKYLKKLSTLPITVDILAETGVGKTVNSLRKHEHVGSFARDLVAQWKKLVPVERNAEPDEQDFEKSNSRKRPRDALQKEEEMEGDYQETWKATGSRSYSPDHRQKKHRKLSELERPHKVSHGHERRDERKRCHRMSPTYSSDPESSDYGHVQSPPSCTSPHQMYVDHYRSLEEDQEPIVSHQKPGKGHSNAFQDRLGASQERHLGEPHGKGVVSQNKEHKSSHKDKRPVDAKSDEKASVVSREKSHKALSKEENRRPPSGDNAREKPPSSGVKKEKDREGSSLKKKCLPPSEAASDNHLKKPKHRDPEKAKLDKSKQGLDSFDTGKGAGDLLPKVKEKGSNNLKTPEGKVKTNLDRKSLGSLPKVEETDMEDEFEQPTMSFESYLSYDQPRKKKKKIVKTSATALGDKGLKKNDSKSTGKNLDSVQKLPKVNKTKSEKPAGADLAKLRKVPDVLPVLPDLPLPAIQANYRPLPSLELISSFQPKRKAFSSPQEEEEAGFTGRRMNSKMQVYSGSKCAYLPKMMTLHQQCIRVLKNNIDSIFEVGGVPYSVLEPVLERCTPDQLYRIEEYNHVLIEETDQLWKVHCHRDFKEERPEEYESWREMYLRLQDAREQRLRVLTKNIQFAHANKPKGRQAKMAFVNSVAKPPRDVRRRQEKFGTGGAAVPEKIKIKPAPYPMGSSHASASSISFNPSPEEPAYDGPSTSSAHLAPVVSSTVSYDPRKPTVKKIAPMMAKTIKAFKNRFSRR
UniProt Q9NYP7: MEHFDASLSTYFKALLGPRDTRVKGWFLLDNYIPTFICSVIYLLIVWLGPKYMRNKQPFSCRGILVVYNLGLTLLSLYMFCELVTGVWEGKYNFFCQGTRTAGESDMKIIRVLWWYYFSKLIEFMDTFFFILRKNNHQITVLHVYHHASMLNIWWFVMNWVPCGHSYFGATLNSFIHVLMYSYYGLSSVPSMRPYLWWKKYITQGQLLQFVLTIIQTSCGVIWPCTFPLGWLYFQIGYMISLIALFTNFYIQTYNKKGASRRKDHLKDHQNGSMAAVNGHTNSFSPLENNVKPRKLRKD
UniProt O60841: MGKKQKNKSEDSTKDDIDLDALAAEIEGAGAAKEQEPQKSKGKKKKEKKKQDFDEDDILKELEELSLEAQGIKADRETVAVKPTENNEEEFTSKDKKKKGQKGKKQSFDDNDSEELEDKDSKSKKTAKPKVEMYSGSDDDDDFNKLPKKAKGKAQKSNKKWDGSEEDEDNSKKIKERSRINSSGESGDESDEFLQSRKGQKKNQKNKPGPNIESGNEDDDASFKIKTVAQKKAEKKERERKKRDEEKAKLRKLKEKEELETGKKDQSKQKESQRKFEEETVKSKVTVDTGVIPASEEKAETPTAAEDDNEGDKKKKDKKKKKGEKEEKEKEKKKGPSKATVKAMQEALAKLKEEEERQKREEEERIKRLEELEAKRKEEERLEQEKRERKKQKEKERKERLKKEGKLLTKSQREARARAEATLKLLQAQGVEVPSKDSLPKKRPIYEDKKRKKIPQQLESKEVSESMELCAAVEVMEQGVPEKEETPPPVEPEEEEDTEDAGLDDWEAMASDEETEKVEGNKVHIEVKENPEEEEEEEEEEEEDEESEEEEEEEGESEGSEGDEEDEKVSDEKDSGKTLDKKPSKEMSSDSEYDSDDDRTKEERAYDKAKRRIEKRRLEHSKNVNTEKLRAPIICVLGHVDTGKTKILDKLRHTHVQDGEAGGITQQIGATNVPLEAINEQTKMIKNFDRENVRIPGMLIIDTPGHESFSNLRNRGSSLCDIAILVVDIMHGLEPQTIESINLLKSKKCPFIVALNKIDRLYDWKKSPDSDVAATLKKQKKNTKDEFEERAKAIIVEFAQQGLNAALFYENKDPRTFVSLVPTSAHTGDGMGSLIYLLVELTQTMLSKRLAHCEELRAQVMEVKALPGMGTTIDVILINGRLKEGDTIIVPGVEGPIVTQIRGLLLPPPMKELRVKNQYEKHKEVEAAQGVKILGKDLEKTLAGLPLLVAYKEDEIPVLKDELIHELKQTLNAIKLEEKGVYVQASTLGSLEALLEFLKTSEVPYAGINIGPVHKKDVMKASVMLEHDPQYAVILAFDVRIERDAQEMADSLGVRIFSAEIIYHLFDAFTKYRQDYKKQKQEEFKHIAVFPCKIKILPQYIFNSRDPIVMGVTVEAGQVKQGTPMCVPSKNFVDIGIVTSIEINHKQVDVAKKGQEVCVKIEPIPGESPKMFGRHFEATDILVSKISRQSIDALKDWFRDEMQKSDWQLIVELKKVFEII
UniProt Q15723: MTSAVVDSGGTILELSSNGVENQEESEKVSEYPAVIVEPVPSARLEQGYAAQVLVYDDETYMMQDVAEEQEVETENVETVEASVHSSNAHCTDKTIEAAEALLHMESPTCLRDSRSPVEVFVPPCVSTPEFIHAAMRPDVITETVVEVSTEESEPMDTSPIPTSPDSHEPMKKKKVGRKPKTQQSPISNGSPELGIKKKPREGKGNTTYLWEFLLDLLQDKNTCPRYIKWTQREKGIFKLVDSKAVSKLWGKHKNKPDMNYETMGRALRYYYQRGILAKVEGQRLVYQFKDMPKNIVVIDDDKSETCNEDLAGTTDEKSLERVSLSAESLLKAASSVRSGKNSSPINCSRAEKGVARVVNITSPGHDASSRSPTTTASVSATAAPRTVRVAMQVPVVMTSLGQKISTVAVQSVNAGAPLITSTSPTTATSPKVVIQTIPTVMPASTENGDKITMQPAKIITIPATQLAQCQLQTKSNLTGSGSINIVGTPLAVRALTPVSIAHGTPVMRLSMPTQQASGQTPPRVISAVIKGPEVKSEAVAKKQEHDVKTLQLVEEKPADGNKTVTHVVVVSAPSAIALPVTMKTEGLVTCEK
UniProt P16422: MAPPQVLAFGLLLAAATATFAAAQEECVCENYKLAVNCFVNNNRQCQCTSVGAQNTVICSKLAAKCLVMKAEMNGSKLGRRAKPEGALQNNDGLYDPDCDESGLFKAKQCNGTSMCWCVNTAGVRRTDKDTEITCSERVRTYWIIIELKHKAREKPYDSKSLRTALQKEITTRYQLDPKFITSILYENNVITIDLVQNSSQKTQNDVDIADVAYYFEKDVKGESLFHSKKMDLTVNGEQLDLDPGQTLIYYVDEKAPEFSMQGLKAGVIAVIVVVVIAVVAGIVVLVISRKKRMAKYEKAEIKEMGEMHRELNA
UniProt Q9NZJ5: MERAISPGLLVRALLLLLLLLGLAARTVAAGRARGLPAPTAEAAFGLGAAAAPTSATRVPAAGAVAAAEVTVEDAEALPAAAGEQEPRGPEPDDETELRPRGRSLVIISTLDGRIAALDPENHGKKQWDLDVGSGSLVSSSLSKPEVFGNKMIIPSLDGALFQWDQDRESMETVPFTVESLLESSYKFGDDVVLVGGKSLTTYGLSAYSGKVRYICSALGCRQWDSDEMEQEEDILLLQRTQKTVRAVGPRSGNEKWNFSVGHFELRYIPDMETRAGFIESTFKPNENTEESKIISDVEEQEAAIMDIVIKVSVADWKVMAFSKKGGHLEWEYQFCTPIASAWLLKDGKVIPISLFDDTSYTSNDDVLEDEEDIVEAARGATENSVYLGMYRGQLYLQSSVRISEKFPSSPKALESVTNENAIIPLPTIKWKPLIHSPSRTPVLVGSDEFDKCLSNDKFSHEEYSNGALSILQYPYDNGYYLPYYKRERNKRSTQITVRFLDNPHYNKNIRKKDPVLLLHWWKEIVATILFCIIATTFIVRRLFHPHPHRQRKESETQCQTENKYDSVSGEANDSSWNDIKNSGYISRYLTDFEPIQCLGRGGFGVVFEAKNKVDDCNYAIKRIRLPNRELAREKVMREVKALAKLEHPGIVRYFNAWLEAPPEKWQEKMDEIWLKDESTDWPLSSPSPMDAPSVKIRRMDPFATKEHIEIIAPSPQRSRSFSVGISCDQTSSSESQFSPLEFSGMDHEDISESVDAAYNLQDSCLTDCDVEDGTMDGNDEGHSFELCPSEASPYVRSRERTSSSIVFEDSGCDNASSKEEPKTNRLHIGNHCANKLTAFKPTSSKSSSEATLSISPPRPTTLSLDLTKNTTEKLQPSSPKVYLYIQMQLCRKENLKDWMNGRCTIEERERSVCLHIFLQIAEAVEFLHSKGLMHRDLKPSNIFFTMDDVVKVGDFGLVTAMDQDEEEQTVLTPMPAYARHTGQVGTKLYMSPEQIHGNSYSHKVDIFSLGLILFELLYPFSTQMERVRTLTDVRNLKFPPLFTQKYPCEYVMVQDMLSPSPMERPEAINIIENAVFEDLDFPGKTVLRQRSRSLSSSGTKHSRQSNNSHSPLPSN
UniProt P60228, whole entry, looked up: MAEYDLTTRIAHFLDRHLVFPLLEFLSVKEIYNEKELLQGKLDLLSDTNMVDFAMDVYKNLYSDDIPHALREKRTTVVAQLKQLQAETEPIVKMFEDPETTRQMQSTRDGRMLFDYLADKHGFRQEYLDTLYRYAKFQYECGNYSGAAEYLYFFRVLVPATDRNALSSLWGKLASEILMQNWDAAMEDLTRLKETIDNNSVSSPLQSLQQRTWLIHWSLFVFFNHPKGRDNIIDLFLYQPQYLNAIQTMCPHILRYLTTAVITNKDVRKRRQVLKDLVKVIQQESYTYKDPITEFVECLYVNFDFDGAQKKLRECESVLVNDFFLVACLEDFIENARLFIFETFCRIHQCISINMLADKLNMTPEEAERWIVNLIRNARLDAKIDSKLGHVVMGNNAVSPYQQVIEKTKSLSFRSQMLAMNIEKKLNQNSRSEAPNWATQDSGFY

What was measured:
Assay in all cases: log2 fold change, soluble protein after heating vs DMSO (PISA); higher = thermal stabilisation; K562 lysate, 10 uM; active = over 0.2 and 3.5 SD of the protein, either way, in both replicates (recomputed)
[1] = compound: Cc1cn(-c2cc(NC(=O)c3ccc(C)c(Nc4nccc(-c5cccnc5)n4)c3)cc(C(F)(F)F)c2)cn1 [nilotinib]
Summary of the method: (§1)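 K562 pellets were dounce-homogenised in PBS pH 7.4 containing 1 mM MgCl2, and the crude extract, at 1 mg/mL protein, was exposed to 10 μM compound for 30 min. Aliquots were heated for 3 min across 48°C-58°C, pooled, brought to 0.5% NP-40 at 4°C and spun at 21,000xg for 90 min, with the supernatant taken as soluble protein. TMTpro 16plex LC-MS/MS with equalised channel sums quantified that protein. Values are log-two fold changes in thermal stability relative to solvent controls, taken from duplicates.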

[2] = compound: Cc1nc(Nc2n[nH]c3c2CN(C(=O)N[C@H](CN(C)C)c2ccccc2)C3(C)C)c2sccc2n1
Summary of the method: as §1

[3] = compound: Cc1nc(Nc2ncc(C(=O)Nc3c(C)cccc3Cl)s2)cc(N2CCN(CCO)CC2)n1 [dasatinib]
Summary of the method: as §1

[4] = compound: Cc1ncc(-c2ccnc(Nc3ccc(S(C)(=O)=O)cc3)n2)n1C(C)C
Summary of the method: as §1

[5] = compound: Cn1cc(-c2ccc3c(c2)CCN3C(=O)Cc2cccc(C(F)(F)F)c2)c2c(N)ncnc21
Summary of the method: as §1

[6] = compound: Cn1cc(CNCC2CCN(c3ncc(C(=O)NO)cn3)CC2)c2ccccc21 [quisinostat]
Summary of the method: as §1

[7] = compound: Cn1cncc1[C@@](N)(c1ccc(Cl)cc1)c1ccc2c(c1)c(-c1cccc(Cl)c1)cc(=O)n2C [tipifarnib]
Summary of the method: as §1

[8] = compound: NC(=O)Nc1cc(-c2cccc(F)c2)sc1C(=O)N[C@H]1CCCNC1
Summary of the method: as §1

[9] = compound: NC(=O)c1cnc(N[C@@H]2CCCC[C@@H]2N)nc1Nc1cccc(-n2nccn2)c1
Summary of the method: as §1

[10] = compound: NC1(c2ccc(-c3nc4ccn5c(=O)[nH]nc5c4cc3-c3ccccc3)cc2)CCC1
Summary of the method: as §1

[11] = compound: NCC(=O)Nc1ccc(-n2nc(C(F)(F)F)cc2-c2ccc3c(ccc4ccccc43)c2)cc1
Summary of the method: as §1

[12] = compound: O=C(CCCCCCC(=O)Nc1ccccc1)NO [vorinostat]
Summary of the method: as §1

[13] = compound: O=C(O)c1ccc2c(c1)nc(Nc1cccc(Cl)c1)c1ccncc12 [silmitasertib]
Summary of the method: as §1

[14] = compound: O=C1NC(=O)C(c2cnc3ccccn23)=C1c1cn2c3c(cc(F)cc13)CN(C(=O)N1CCCCC1)CC2
Summary of the method: as §1

[15] = compound: c1cn2cc(-c3ccc4cn[nH]c4c3)nc(Nc3ccc(N4CCOCC4)cc3)c2n1 [entospletinib]
Summary of the method: as §1

Measured: log2 fold change

EIF6 (UniProt P56537)
inactive: [1] -0.03 | [2] 0.017 | [3] -0.004 | [4] 0.019 | [5] -0.002 | [6] 0.003 | [7] 0.011 | [8] 0.016 | [9] 0.008 | [10] -0.055 | [11] 0.079 | [12] 0.047 | [13] -0.033 | [14] -0.003 | [15] 0.001

EPS8L2 (UniProt Q9H6S3)
active: [15] 0.33
inactive: [1] -0.011 | [2] 0.05 | [3] 0.051 | [4] -0.121 | [5] 0.053 | [6] 0.013 | [7] 0.013 | [8] 0.058 | [9] -0.01 | [10] 0.013 | [12] 0.017 | [13] -0.019 | [14] 0.026

ELOVL7 (UniProt A1L3X0)
inactive: [1] 0.048 | [2] 0.046 | [3] -0.111 | [4] -0.004 | [5] -0.102 | [7] -0.088 | [9] 0.099 | [10] 0.117 | [12] 0.202 | [13] -0.078

EML2 isoform 3 (UniProt O95834)
inactive: [1] -0.011 | [2] 0.02 | [3] -0.024 | [4] 0.006 | [5] 0.028 | [6] 0.081 | [7] 0.005 | [8] -0.013 | [9] -0.008 | [10] -0.003 | [11] -0.045 | [12] -0.004 | [13] 0.023 | [14] -0.036 | [15] 0.001

ELOA (UniProt Q14241)
inactive: [1] 0.01 | [2] 0.013 | [3] -0.049 | [4] -0.003 | [5] 0.017 | [6] -0.143 | [7] -0.021 | [8] 0.045 | [9] -0.015 | [10] -0.019 | [11] -0.031 | [12] -0.008 | [13] -0.026 | [14] 0 | [15] 0

EIF2AK1 (UniProt Q9BQI3)
inactive: [1] -0.006 | [2] 0.211 | [3] -0.027 | [4] -0.154 | [5] 0.078 | [6] -0.077 | [7] 0.007 | [8] -0.031 | [9] 0.062 | [10] 0.021 | [11] -0.089 | [12] -0.18 | [13] 0.03 | [14] -0.059 | [15] 0.009

ELOVL5 isoform 2 (UniProt Q9NYP7)
inactive: [1] -0.113 | [2] 0.015 | [3] -0.082 | [4] -0.09 | [5] -0.051 | [6] -0.089 | [7] -0.049 | [8] 0.079 | [9] 0.01 | [11] -0.016 | [14] -0.037 | [15] -0.005

ERCC6 (UniProt Q03468)
inactive: [1] -0.064 | [2] 0.088 | [3] 0.333 | [4] -0.055 | [5] -0.047 | [7] -0.042 | [9] -0.007 | [10] 0.039 | [11] -0.067 | [12] 0.025 | [13] -0.019 | [15] -0.045

EIF5B (UniProt O60841)
inactive: [1] -0.006 | [2] 0 | [3] 0.018 | [4] 0 | [5] -0.003 | [6] 0.049 | [7] 0.003 | [8] -0.007 | [9] -0.012 | [10] -0.012 | [11] 0.021 | [12] -0.032 | [13] 0.02 | [14] 0.013 | [15] -0.003

EPG5 (UniProt Q9HCE0)
inactive: [1] 0.038 | [2] -0.116 | [3] -0.038 | [4] -0.324 | [5] 0.209 | [6] 0.117 | [7] 0.062 | [8] 0.086 | [9] -0.018 | [10] 0.257 | [12] -0.138 | [13] -0.131 | [14] -0.037 | [15] 0.077

ELF2 (UniProt Q15723)
inactive: [1] 0.032 | [2] -0.007 | [3] -0.105 | [4] 0.065 | [5] 0.068 | [6] 0.026 | [7] -0.043 | [8] -0.035 | [9] -0.02 | [10] 0.032 | [11] 0.03 | [12] -0.25 | [13] 0 | [14] -0.011 | [15] -0.03

EPCAM (UniProt P16422)
inactive: [1] 0.009 | [2] -0.021 | [3] -0.023 | [4] -0.006 | [5] -0.015 | [6] -0.076 | [7] 0.012 | [8] 0.007 | [9] 0.062 | [10] 0.008 | [11] 0.055 | [12] 0.095 | [13] 0.006 | [14] 0.001 | [15] 0.047

EIF2AK3 (UniProt Q9NZJ5)
inactive: [1] 0.124 | [2] 0.012 | [3] -0.385 | [4] -0.001 | [5] 0.269 | [7] -0.088 | [9] 0.104 | [10] -0.166 | [12] -0.142 | [13] 0.241

EIF3E (UniProt P60228)
inactive: [1] -0.013 | [2] 0.013 | [3] -0.029 | [4] -0.041 | [5] 0.044 | [6] -0.034 | [7] -0.006 | [8] 0.046 | [9] 0.022 | [10] -0.044 | [11] -0.044 | [12] -0.146 | [13] 0.047 | [14] -0.027 | [15] 0.023

ERGIC1 (UniProt Q969X5)
inactive: [1] -0.011 | [2] 0.047 | [3] 0.027 | [4] -0.008 | [5] 0.019 | [6] -0.001 | [7] -0.026 | [8] 0.038 | [9] 0.019 | [10] -0.003 | [11] 0.018 | [12] 0.05 | [13] -0.003 | [14] -0.03 | [15] -0.011

Taken from the listing (five entries):
EIF2AK1 (UniProt Q9BQI3)
inactive: [1] -0.006 | [2] 0.211 | [3] -0.027 | [4] -0.154 | [5] 0.078 | [6] -0.077 | [7] 0.007 | [8] -0.031 | [9] 0.062 | [10] 0.021 | [11] -0.089 | [12] -0.18 | [13] 0.03 | [14] -0.059 | [15] 0.009

ELOVL5 isoform 2 (UniProt Q9NYP7)
inactive: [1] -0.113 | [2] 0.015 | [3] -0.082 | [4] -0.09 | [5] -0.051 | [6] -0.089 | [7] -0.049 | [8] 0.079 | [9] 0.01 | [11] -0.016 | [14] -0.037 | [15] -0.005

ERCC6 (UniProt Q03468)
inactive: [1] -0.064 | [2] 0.088 | [3] 0.333 | [4] -0.055 | [5] -0.047 | [7] -0.042 | [9] -0.007 | [10] 0.039 | [11] -0.067 | [12] 0.025 | [13] -0.019 | [15] -0.045

EIF5B (UniProt O60841)
inactive: [1] -0.006 | [2] 0 | [3] 0.018 | [4] 0 | [5] -0.003 | [6] 0.049 | [7] 0.003 | [8] -0.007 | [9] -0.012 | [10] -0.012 | [11] 0.021 | [12] -0.032 | [13] 0.02 | [14] 0.013 | [15] -0.003

EPG5 (UniProt Q9HCE0)
inactive: [1] 0.038 | [2] -0.116 | [3] -0.038 | [4] -0.324 | [5] 0.209 | [6] 0.117 | [7] 0.062 | [8] 0.086 | [9] -0.018 | [10] 0.257 | [12] -0.138 | [13] -0.131 | [14] -0.037 | [15] 0.077

Continued:

EIF5 (UniProt P55010)
inactive: [1] 0.001 | [2] -0.01 | [3] -0.024 | [4] 0.004 | [5] -0.022 | [6] 0.033 | [7] 0.001 | [8] -0.01 | [9] -0.016 | [10] 0.002 | [11] 0.002 | [12] 0.051 | [13] -0.017 | [14] -0.002 | [15] 0.003

EPHB4 (UniProt P54760)
inactive: [1] 0.163 | [2] 0.021 | [4] -0.08 | [5] 0.123 | [6] -0.135 | [7] -0.203 | [8] 0.301 | [9] 0.092 | [10] -0.034 | [11] 0.143 | [12] 0.098 | [13] -0.012 | [14] -0.127 | [15] 0.119

EIF2B3 (UniProt Q9NR50)
inactive: [1] 0.001 | [2] 0.001 | [3] -0.049 | [4] 0.009 | [5] -0.024 | [6] -0.036 | [7] -0.013 | [8] 0.022 | [9] -0.008 | [10] -0.009 | [11] -0.006 | [13] 0.01 | [14] 0.009 | [15] -0.004
active: [12] -0.244

EML5 isoform 5 (UniProt Q05BV3)
inactive: [1] -0.007 | [2] -0.047 | [3] -0.115 | [4] 0.009 | [5] 0.157 | [6] -0.176 | [7] -0.026 | [8] 0.08 | [9] 0.006 | [10] -0.02 | [12] -0.041 | [13] -0.011 | [14] -0.057

EIF2AK2 (UniProt P19525)
inactive: [1] -0.014 | [2] 0.043 | [3] 0.122 | [4] 0.01 | [5] 0.056 | [6] -0.087 | [7] -0.032 | [8] 0.045 | [9] -0.013 | [10] -0.054 | [11] 0.021 | [13] 0.038 | [14] -0.017 | [15] 0.068
active: [12] -0.415

ENO3 (UniProt P13929)
inactive: [1] 0.041 | [2] -0.013 | [3] -0.15 | [4] 0.022 | [5] 0.144 | [6] 0.047 | [7] 0.016 | [8] -0.02 | [9] 0.002 | [10] -0.011 | [11] 0.087 | [12] -0.009 | [13] 0.062 | [14] 0.046 | [15] -0.01
